# Assay results: the supplement of paper PMC12823440, “Inhibitors supercharge kinase turnover through native proteolytic circuits” (Nature, 2025)
# By UniProt entry, the sequences of proteins in these tests, tags left out. Where a name states a change or a piece, a line headed by the entry shows the natural chain unless it says otherwise.
# UniProt Q15303, whole entry R711C: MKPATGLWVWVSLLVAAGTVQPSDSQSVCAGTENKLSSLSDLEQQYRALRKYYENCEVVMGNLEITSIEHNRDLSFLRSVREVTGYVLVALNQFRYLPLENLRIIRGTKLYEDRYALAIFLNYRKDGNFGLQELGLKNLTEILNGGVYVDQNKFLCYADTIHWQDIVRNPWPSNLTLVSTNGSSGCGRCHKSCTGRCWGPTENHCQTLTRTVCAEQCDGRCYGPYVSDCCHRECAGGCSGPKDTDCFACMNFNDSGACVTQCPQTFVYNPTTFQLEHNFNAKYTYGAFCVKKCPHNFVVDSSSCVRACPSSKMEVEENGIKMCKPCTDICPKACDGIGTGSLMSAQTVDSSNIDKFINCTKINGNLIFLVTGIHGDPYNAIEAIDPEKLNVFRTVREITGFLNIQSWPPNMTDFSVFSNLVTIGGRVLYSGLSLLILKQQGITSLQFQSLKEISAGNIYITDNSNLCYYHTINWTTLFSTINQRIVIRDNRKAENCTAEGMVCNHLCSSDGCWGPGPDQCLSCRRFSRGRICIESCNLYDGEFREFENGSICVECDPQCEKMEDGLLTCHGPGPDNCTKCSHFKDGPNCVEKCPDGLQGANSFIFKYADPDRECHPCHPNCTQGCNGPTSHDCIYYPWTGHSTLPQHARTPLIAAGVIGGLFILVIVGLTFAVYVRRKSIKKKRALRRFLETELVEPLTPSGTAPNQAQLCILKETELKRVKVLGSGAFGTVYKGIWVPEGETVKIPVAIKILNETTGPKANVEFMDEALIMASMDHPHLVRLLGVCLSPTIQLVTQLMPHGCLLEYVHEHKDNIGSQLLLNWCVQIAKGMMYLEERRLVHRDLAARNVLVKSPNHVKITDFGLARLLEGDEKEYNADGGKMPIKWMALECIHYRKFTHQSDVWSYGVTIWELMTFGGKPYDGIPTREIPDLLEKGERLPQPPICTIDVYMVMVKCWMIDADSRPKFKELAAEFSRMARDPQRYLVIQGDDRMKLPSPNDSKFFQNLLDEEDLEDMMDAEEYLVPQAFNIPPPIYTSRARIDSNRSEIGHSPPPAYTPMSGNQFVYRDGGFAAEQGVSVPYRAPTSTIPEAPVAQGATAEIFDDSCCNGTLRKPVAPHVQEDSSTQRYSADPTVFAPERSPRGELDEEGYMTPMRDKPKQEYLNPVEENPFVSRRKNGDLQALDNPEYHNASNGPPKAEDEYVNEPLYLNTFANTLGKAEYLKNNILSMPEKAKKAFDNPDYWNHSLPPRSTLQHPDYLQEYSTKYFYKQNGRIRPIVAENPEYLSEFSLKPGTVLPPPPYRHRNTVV
# UniProt P11362, whole entry, looked up: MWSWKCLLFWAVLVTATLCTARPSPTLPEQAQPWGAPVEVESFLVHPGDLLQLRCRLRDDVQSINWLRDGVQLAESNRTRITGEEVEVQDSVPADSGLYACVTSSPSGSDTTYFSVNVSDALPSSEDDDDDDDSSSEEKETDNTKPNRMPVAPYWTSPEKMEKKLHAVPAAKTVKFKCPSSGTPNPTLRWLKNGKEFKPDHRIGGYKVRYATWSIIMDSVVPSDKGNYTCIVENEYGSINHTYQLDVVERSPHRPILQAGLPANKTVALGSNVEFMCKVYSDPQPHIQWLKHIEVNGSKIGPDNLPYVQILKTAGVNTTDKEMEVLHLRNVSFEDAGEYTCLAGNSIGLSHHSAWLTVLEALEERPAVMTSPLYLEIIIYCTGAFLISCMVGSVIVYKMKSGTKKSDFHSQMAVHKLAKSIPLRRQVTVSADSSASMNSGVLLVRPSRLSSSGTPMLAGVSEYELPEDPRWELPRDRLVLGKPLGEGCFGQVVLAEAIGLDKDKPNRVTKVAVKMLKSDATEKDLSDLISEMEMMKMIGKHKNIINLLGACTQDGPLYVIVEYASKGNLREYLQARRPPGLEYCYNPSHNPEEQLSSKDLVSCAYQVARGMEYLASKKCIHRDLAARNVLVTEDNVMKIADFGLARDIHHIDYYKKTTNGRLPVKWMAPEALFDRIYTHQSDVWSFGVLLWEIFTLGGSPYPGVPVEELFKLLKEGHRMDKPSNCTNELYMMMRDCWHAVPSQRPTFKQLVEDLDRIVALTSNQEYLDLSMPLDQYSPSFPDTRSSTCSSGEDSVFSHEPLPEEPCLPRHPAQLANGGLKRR
# UniProt P21802, whole entry, looked up: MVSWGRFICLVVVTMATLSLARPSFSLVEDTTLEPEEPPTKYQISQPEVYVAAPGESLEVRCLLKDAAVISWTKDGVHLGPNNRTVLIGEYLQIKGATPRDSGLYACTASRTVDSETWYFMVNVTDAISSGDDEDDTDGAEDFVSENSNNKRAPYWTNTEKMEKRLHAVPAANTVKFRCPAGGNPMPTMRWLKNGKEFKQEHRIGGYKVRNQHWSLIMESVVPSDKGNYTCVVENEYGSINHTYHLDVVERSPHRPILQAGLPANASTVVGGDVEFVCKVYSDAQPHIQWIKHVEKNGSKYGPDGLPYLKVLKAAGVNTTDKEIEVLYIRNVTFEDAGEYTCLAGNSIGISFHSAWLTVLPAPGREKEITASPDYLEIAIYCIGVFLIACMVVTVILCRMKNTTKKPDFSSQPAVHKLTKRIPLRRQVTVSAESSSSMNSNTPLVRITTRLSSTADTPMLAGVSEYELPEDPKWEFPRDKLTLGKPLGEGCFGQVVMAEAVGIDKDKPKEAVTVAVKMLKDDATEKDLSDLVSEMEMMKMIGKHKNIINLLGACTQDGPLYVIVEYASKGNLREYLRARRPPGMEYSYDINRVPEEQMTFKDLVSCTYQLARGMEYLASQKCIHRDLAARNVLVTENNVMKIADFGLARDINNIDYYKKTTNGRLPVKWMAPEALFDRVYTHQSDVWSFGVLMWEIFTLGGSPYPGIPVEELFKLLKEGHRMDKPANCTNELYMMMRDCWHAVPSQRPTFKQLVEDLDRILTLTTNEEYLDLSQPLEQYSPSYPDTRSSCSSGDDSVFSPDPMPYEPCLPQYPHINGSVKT
# UniProt P22607, whole entry, looked up: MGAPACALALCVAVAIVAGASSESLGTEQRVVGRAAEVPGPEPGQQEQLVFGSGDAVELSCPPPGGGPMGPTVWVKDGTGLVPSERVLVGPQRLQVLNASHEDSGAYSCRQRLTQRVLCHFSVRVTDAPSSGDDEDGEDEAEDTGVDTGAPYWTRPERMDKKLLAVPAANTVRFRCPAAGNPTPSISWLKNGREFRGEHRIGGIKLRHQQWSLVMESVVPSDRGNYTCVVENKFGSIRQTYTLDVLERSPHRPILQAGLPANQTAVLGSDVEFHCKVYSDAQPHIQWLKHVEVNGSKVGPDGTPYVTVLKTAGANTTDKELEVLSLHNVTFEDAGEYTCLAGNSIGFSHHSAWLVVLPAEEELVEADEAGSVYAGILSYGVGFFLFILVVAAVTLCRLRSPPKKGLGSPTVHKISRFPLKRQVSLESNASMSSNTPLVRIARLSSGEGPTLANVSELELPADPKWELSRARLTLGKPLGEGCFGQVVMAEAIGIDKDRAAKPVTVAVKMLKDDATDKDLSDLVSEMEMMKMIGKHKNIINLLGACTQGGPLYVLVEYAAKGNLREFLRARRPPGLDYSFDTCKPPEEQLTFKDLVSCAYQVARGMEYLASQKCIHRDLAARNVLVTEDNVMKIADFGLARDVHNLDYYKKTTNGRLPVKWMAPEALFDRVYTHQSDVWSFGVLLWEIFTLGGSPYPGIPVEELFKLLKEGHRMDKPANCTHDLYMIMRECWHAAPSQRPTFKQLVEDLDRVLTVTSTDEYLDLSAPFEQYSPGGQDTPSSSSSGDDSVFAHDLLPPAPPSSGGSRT
# UniProt P36888, whole entry: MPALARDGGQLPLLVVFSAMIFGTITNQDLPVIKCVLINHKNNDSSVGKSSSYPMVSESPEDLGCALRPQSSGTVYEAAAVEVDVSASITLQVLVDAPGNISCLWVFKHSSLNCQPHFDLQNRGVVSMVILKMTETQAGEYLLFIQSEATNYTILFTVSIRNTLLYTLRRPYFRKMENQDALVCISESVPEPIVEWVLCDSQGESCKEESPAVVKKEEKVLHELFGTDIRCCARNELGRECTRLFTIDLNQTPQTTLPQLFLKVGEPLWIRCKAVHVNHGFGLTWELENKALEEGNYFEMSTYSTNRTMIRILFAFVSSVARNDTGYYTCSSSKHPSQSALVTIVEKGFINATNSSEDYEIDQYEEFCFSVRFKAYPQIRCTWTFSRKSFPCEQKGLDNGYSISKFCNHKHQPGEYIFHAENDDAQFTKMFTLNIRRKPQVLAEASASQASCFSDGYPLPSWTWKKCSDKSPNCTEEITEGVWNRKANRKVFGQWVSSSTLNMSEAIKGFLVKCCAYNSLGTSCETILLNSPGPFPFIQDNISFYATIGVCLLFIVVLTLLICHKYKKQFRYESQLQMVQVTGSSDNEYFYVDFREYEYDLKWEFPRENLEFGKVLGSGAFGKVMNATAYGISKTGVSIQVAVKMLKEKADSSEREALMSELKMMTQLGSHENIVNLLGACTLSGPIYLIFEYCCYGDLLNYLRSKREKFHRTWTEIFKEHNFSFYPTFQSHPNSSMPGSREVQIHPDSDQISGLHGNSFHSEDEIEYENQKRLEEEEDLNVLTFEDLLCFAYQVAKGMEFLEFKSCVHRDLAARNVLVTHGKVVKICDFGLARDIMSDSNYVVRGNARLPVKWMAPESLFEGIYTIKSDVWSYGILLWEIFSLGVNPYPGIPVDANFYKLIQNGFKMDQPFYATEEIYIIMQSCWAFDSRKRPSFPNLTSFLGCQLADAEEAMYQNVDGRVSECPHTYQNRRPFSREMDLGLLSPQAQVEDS
# UniProt P06241, whole entry, looked up: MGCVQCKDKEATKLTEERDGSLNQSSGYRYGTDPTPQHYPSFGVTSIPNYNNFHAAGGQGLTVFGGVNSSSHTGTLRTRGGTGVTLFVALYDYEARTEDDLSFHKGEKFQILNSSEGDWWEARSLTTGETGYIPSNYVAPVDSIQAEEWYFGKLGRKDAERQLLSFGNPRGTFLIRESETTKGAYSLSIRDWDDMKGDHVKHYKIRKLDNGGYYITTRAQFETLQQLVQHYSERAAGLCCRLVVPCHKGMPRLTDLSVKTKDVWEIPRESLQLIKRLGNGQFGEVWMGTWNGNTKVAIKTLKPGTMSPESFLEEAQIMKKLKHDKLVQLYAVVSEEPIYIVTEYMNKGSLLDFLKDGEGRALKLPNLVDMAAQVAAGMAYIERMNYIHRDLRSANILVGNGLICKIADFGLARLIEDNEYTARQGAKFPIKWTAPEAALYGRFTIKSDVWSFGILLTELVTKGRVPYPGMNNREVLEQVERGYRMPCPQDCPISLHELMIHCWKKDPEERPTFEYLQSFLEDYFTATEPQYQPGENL
# UniProt P49840: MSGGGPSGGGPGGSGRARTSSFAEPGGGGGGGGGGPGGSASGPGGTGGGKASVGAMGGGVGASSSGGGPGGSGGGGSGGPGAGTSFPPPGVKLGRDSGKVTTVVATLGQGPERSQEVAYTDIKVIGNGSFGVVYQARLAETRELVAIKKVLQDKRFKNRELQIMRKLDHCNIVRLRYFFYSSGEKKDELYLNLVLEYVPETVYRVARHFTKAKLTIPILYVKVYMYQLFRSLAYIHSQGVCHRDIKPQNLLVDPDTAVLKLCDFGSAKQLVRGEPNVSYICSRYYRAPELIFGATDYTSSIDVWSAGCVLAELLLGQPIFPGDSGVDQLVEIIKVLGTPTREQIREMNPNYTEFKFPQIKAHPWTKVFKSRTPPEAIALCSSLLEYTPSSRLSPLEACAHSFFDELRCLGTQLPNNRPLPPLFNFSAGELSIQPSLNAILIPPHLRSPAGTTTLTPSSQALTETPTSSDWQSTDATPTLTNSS
# Counter-ions that a name gives are not always drawn. This is one part of the list. Hit calls seldom repeat between salt and free forms of one compound.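 In K562 cells expressing nanoluciferase-fused kinases, luminescence was recorded at 4 h intervals between 2 and 18 h, normalized as percent of control with DMSO at 100% and a positive control at 0%. A significant (2 sigma) signal drop marks a time point as decreased. The authors' rule for a hit is not shown and takes in more than the number of time points.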
# What was measured:
# Assay in all cases: kinase-Nluc reporter destabilization hit call (1 = scored as downregulated) (binary); higher = compound decreases kinase abundance
# Settings in all cases: K562; 2-18 h
# [1] = target: EGFR (UniProt P00533)
# [2] = target: EGFR_G719S (UniProt P00533)
# [3] = target: EGFR_G719S_T790M (UniProt P00533)
# [4] = target: EGFR_L718V (UniProt P00533)
# [5] = target: EGFR_L858R (UniProt P00533)
# [6] = target: EGFR_L861Q (UniProt P00533)
# [7] = target: EGFR_T790M (UniProt P00533)
# [8] = target: EPHA2 (UniProt P29317)
# [9] = target: ERBB3 (UniProt P21860)
# [10] = target: ERBB4_R711C (clone: ERBB4_mut) (UniProt Q15303)
# [11] = target: ERN1 (UniProt O75460)
# [12] = target: FGFR1 (UniProt P11362)
# [13] = target: FGFR2 (UniProt P21802)
# [14] = target: FGFR3 (UniProt P22607)
# [15] = target: FGR (UniProt P09769)
# [16] = target: FLT3 (UniProt P36888)
# [17] = target: FYN (UniProt P06241)
# [18] = target: GSK3A (UniProt P49840)
# [19] = target: HER2 (UniProt P04626)
# [20] = target: INSRR (UniProt P14616)
Compound,kinase-Nluc reporter destabilization hit call [1],kinase-Nluc reporter destabilization hit call [2],kinase-Nluc reporter destabilization hit call [3],kinase-Nluc reporter destabilization hit call [4],kinase-Nluc reporter destabilization hit call [5],kinase-Nluc reporter destabilization hit call [6],kinase-Nluc reporter destabilization hit call [7],kinase-Nluc reporter destabilization hit call [8],kinase-Nluc reporter destabilization hit call [9],kinase-Nluc reporter destabilization hit call [10],kinase-Nluc reporter destabilization hit call [11],kinase-Nluc reporter destabilization hit call [12],kinase-Nluc reporter destabilization hit call [13],kinase-Nluc reporter destabilization hit call [14],kinase-Nluc reporter destabilization hit call [15],kinase-Nluc reporter destabilization hit call [16],kinase-Nluc reporter destabilization hit call [17],kinase-Nluc reporter destabilization hit call [18],kinase-Nluc reporter destabilization hit call [19],kinase-Nluc reporter destabilization hit call [20]
O=C(CNc1cccc(Cl)c1)NC1CCCN(c2ncnc3[nH]ccc23)C1 (stereo not given) (10 µM),inactive: 0,inactive: 0,inactive: 0,inactive: 0,inactive: 0,inactive: 0,inactive: 0,inactive: 0,inactive: 0,inactive: 0,inactive: 0,inactive: 0,inactive: 0,inactive: 0,inactive: 0,inactive: 0,inactive: 0,inactive: 0,inactive: 0,inactive: 0
COc1cc2ncnc(Nc3ccccc3)c2cc1OC (10 µM),inactive: 0,inactive: 0,inactive: 0,inactive: 0,inactive: 0,inactive: 0,inactive: 0,inactive: 0,inactive: 0,inactive: 0,inactive: 0,inactive: 0,inactive: 0,inactive: 0,inactive: 0,inactive: 0,active: 1,inactive: 0,inactive: 0,inactive: 0
O=[N+]([O-])c1ccc(Nc2nc(N3CCOCC3)nc(N3CCOCC3)n2)cc1 (10 µM),inactive: 0,inactive: 0,inactive: 0,inactive: 0,inactive: 0,inactive: 0,inactive: 0,inactive: 0,inactive: 0,inactive: 0,inactive: 0,inactive: 0,inactive: 0,inactive: 0,inactive: 0,inactive: 0,inactive: 0,inactive: 0,inactive: 0,inactive: 0
CNC(=O)c1ccccc1Nc1nc(Nc2ccc3c(c2OC)CCC[C@H](N2CCN(CCO)CC2)C3)ncc1Cl (10 µM),inactive: 0,inactive: 0,inactive: 0,inactive: 0,inactive: 0,inactive: 0,inactive: 0,inactive: 0,inactive: 0,inactive: 0,inactive: 0,inactive: 0,inactive: 0,inactive: 0,inactive: 0,inactive: 0,inactive: 0,inactive: 0,inactive: 0,inactive: 0
C=C[C@@](C)(/C=C/c1ccc(O)cc1)CCC=C(C)C [Bakuchiol] (10 µM),inactive: 0,inactive: 0,inactive: 0,inactive: 0,inactive: 0,inactive: 0,inactive: 0,inactive: 0,inactive: 0,inactive: 0,inactive: 0,inactive: 0,inactive: 0,inactive: 0,inactive: 0,inactive: 0,inactive: 0,inactive: 0,inactive: 0,inactive: 0
CN(C)S(=O)(=O)c1ccc2c(c1)/C(=C/c1cc3c([nH]1)CCCC3)C(=O)N2 (2.5 µM),inactive: 0,inactive: 0,inactive: 0,inactive: 0,inactive: 0,inactive: 0,inactive: 0,inactive: 0,inactive: 0,inactive: 0,inactive: 0,inactive: 0,inactive: 0,inactive: 0,inactive: 0,inactive: 0,inactive: 0,inactive: 0,inactive: 0,inactive: 0
CC(C)(C[C@H](N)C(=O)O)C(F)F [NV-5138 (hydrochloride)] (10 µM),inactive: 0,inactive: 0,inactive: 0,inactive: 0,inactive: 0,inactive: 0,inactive: 0,inactive: 0,inactive: 0,inactive: 0,inactive: 0,inactive: 0,inactive: 0,inactive: 0,inactive: 0,inactive: 0,inactive: 0,inactive: 0,inactive: 0,inactive: 0
NC(=S)n1[nH]c(-c2ccc([N+](=O)[O-])cc2)c(N=Nc2cccc(Cl)c2)c1=O (2.5 µM),inactive: 0,inactive: 0,inactive: 0,inactive: 0,inactive: 0,inactive: 0,inactive: 0,inactive: 0,inactive: 0,inactive: 0,inactive: 0,inactive: 0,inactive: 0,inactive: 0,inactive: 0,inactive: 0,inactive: 0,inactive: 0,inactive: 0,inactive: 0
CN(c1ccc(NC(=O)Nc2ccc(OC(F)(F)F)cc2)cc1)c1ccnc(Nc2cccc(S(N)(=O)=O)c2)n1 (2.5 µM),inactive: 0,inactive: 0,inactive: 0,inactive: 0,inactive: 0,inactive: 0,inactive: 0,inactive: 0,inactive: 0,inactive: 0,inactive: 0,inactive: 0,inactive: 0,inactive: 0,inactive: 0,inactive: 0,inactive: 0,inactive: 0,inactive: 0,inactive: 0
C=CC(=O)N1C[C@H](COc2nc(Nc3cnn(C)c3)nc3[nH]cc(Cl)c23)[C@@H](OC)C1 (2.5 µM),inactive: 0,inactive: 0,inactive: 0,inactive: 0,inactive: 0,inactive: 0,inactive: 0,inactive: 0,inactive: 0,inactive: 0,inactive: 0,inactive: 0,inactive: 0,inactive: 0,inactive: 0,inactive: 0,inactive: 0,inactive: 0,inactive: 0,inactive: 0
CN(C)c1nc2c(Br)c(Br)c(Br)c(Br)c2[nH]1 (10 µM),inactive: 0,inactive: 0,inactive: 0,inactive: 0,inactive: 0,inactive: 0,inactive: 0,inactive: 0,inactive: 0,inactive: 0,inactive: 0,inactive: 0,inactive: 0,inactive: 0,inactive: 0,inactive: 0,inactive: 0,inactive: 0,inactive: 0,inactive: 0
CCc1cncnc1N1CCN(Cc2nc3ccc(C(F)(F)F)cc3[nH]2)CC1 (10 µM),inactive: 0,inactive: 0,inactive: 0,inactive: 0,inactive: 0,inactive: 0,inactive: 0,inactive: 0,inactive: 0,inactive: 0,inactive: 0,inactive: 0,inactive: 0,inactive: 0,inactive: 0,inactive: 0,inactive: 0,inactive: 0,inactive: 0,inactive: 0
COc1ccc(-c2coc3cc(O)ccc3c2=O)cc1 [Formononetin] (10 µM),inactive: 0,inactive: 0,inactive: 0,inactive: 0,inactive: 0,inactive: 0,inactive: 0,inactive: 0,inactive: 0,inactive: 0,inactive: 0,inactive: 0,inactive: 0,inactive: 0,inactive: 0,inactive: 0,inactive: 0,inactive: 0,inactive: 0,inactive: 0
Nc1ncnc2c1c(-c1ccc(Oc3ccccc3)cc1)nn2C1CCN(CCOCCOCCOc2ccc3c(c2)CN(C2CCC(=O)NC2=O)C3=O)CC1 (stereo not given) (2.5 µM),inactive: 0,inactive: 0,inactive: 0,inactive: 0,inactive: 0,inactive: 0,inactive: 0,inactive: 0,inactive: 0,inactive: 0,inactive: 0,inactive: 0,inactive: 0,inactive: 0,inactive: 0,inactive: 0,inactive: 0,inactive: 0,inactive: 0,inactive: 0
Cc1ccc2c(Nc3cccc(Cl)c3F)nccc2c1NC(=O)c1csc2c(N)ncnc12 [Belvarafenib] (10 µM),inactive: 0,inactive: 0,inactive: 0,inactive: 0,inactive: 0,inactive: 0,inactive: 0,inactive: 0,inactive: 0,inactive: 0,inactive: 0,inactive: 0,inactive: 0,inactive: 0,inactive: 0,inactive: 0,inactive: 0,inactive: 0,inactive: 0,inactive: 0
COc1nn(C)cc1Nc1nccc(-c2c[nH]c3c(NC(=O)[C@@H](C)N4CCN(C)CC4)cccc23)n1 (10 µM),inactive: 0,inactive: 0,inactive: 0,inactive: 0,inactive: 0,inactive: 0,inactive: 0,inactive: 0,inactive: 0,inactive: 0,inactive: 0,inactive: 0,inactive: 0,inactive: 0,inactive: 0,inactive: 0,inactive: 0,inactive: 0,inactive: 0,inactive: 0
Cc1cc(-c2ccnc(Nc3cnn(C)c3)n2)ccc1CNC(=O)N1CC(OC(C)C)C1 (10 µM),inactive: 0,inactive: 0,inactive: 0,inactive: 0,inactive: 0,inactive: 0,inactive: 0,inactive: 0,inactive: 0,inactive: 0,inactive: 0,inactive: 0,inactive: 0,inactive: 0,inactive: 0,inactive: 0,inactive: 0,inactive: 0,inactive: 0,inactive: 0
N#CC(c1ccnc(OCc2ccc(CN3CCOCC3)cc2)n1)c1nc2ccccc2s1 (stereo not given) [Bentamapimod] (2.5 µM),inactive: 0,inactive: 0,inactive: 0,inactive: 0,inactive: 0,inactive: 0,inactive: 0,inactive: 0,inactive: 0,inactive: 0,inactive: 0,inactive: 0,inactive: 0,inactive: 0,inactive: 0,inactive: 0,inactive: 0,inactive: 0,inactive: 0,inactive: 0

# 3 entries from above, arranged by count of non-hydrogen atoms, smallest number first:
Compound,kinase-Nluc reporter destabilization hit call [1],kinase-Nluc reporter destabilization hit call [2],kinase-Nluc reporter destabilization hit call [3],kinase-Nluc reporter destabilization hit call [4],kinase-Nluc reporter destabilization hit call [5],kinase-Nluc reporter destabilization hit call [6],kinase-Nluc reporter destabilization hit call [7],kinase-Nluc reporter destabilization hit call [8],kinase-Nluc reporter destabilization hit call [9],kinase-Nluc reporter destabilization hit call [10],kinase-Nluc reporter destabilization hit call [11],kinase-Nluc reporter destabilization hit call [12],kinase-Nluc reporter destabilization hit call [13],kinase-Nluc reporter destabilization hit call [14],kinase-Nluc reporter destabilization hit call [15],kinase-Nluc reporter destabilization hit call [16],kinase-Nluc reporter destabilization hit call [17],kinase-Nluc reporter destabilization hit call [18],kinase-Nluc reporter destabilization hit call [19],kinase-Nluc reporter destabilization hit call [20]
CC(C)(C[C@H](N)C(=O)O)C(F)F [NV-5138 (hydrochloride)] (10 µM),inactive: 0,inactive: 0,inactive: 0,inactive: 0,inactive: 0,inactive: 0,inactive: 0,inactive: 0,inactive: 0,inactive: 0,inactive: 0,inactive: 0,inactive: 0,inactive: 0,inactive: 0,inactive: 0,inactive: 0,inactive: 0,inactive: 0,inactive: 0
C=C[C@@](C)(/C=C/c1ccc(O)cc1)CCC=C(C)C [Bakuchiol] (10 µM),inactive: 0,inactive: 0,inactive: 0,inactive: 0,inactive: 0,inactive: 0,inactive: 0,inactive: 0,inactive: 0,inactive: 0,inactive: 0,inactive: 0,inactive: 0,inactive: 0,inactive: 0,inactive: 0,inactive: 0,inactive: 0,inactive: 0,inactive: 0
O=[N+]([O-])c1ccc(Nc2nc(N3CCOCC3)nc(N3CCOCC3)n2)cc1 (10 µM),inactive: 0,inactive: 0,inactive: 0,inactive: 0,inactive: 0,inactive: 0,inactive: 0,inactive: 0,inactive: 0,inactive: 0,inactive: 0,inactive: 0,inactive: 0,inactive: 0,inactive: 0,inactive: 0,inactive: 0,inactive: 0,inactive: 0,inactive: 0
